Laboratory results as given in PubChem BioAssay AID602313 (National Center for Advancing Translational Sciences (NCATS), 2012).
Hit rate of the full screen: of about 390,000 compounds, about 760 (0.19%) were called active. The shares of active, inactive and inconclusive entries below differ from those in the screen. The call rests on the fitted dose curve; in most records, active means well fitted inhibition curve with a large enough effect; inconclusive means small, poorly fitted or top-dose-only effect; inactive means flat fitted curve, though single readings scatter. A potency beside an inconclusive call is a rough fit, not a confirmed value.

test: qHTS for Inhibitors of Vif-A3F Interactions: qHTS; conditions: HeLa A3F-eYFP + Vif (tagged APOBEC3F with the HIV-1 protein that degrades it), YFP fluorescence increase; series mostly up to 46.1 µM; activity, negative = active: at the top concentration; further: nearly all actives have a fitted effect of over 65% in size; on activity, negative = active: % of control where 0% means no effect
Outline: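 HeLa cells stably expressing A3F-eYFP plus Vif, plated and incubated overnight at 37 deg C, then exposed to compounds overnight at 37 deg C. Blocked degradation read as raised yellow fluorescence (Ex 488/Em 500-530).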
Potency means the concentration at half of the fitted maximal effect.

For `Cc1ccc(-c2nn(-c3ccccc3)cc2/C=C(\C#N)c2cccc(C#N)c2)o1`, which Potency is on record?
The Potency was inconclusive: 3.55 µM [inhibitor, single point].

Which “activity, negative = active” value does the source give for `O=C(Cn1nnc2ccccc2c1=O)Nc1ccc2c(c1)CCC2` here?
Its value is inactive: 1.85%.

For `COC(=O)c1cn(C(=O)c2ccc(OC)c(OC)c2)c2ccccc12`, which Potency is on record?
Its Potency is inconclusive: 11.2 µM [inhibitor, partial curve].

Which Potency does the source give for `O=C(CN(Cc1ccc(Br)cc1)S(=O)(=O)c1ccccc1)NCC1CCCO1` (centres undefined) here?
Its Potency is inconclusive: 12.6 µM [inhibitor, partial curve, poor fit].

For `CC[n+]1ccc(/C=C/c2c[nH]c3ccccc23)cc1`, which Potency is on record?
The Potency was active: 7.08 µM.

With `CC(C)Cc1cc(C(=O)Nc2sc3c(c2C#N)CCC3)no1` as the compound, how does the “activity, negative = active” value read?
The value was inactive: -14.4%.

Which Potency does the source give for `CCN(CC)c1ccc(/C=C2\C(=O)c3ccc(C(=O)O)cc3C2=O)cc1` here?
Its Potency is inconclusive: 22.4 µM [inhibitor, single point].

For `COc1ccccc1NNC(=O)C(O)(c1ccccc1OC)c1ccccc1OC`, which “activity, negative = active” value is on record?
The value was inactive: 0.172%.

For `COCCCn1c(=O)c2ccccc2n(CC(=O)Nc2ccc3c(c2)OCCO3)c1=O`, which Potency is on record?
Its Potency is inconclusive: 5.62 µM [inhibitor, single point].

For `Cc1ccc(C(=O)Nc2nc(COc3ccccc3)cs2)s1`, which “activity, negative = active” value is on record?
Its value is inactive: -1.9%.

With `CCc1c(C)sc(NC(=S)Nc2nc(C)cc(C)n2)c1C(=O)OC` as the compound, how does the “activity, negative = active” value read?
Its value is inactive: -7.34%.

For `Cc1cc(Nc2cccc(Cl)c2Cl)n2ncnc2n1`, which Potency is on record?
Its Potency is inconclusive: 35.5 µM [inhibitor, single point].

Which Potency does the source give for `Cc1ccc(-c2nc3c4ccccc4ccn3c2Cc2ccccc2)cc1` here?
Its Potency is inconclusive: 35.5 µM [inhibitor, single point].

Which “activity, negative = active” value does the source give for `Cc1ccc2nc(-c3cccc(S(=O)(=O)N4CC(C)OC(C)C4)c3)cn2c1` (centres undefined) here?
Its value is inactive: -13.7%.

With `Cc1cc(C)cc(-n2c(N)c(C(=O)Nc3c(C)n(C)n(-c4ccccc4)c3=O)c3nc4ccccc4nc32)c1` as the compound, how does the Potency read?
The Potency was inconclusive: 22.4 µM [inhibitor, partial curve, poor fit].

For `COc1cccc(NC(=O)C2CCN(c3nnc(C)c4c(C)n(-c5ccccc5)nc34)CC2)c1`, which “activity, negative = active” value is on record?
Its value is inactive: -15.1%.

With `O=C(O)CN1C(=O)/C(=C\c2cn(CC(=O)N3CCOCC3)c3ccccc23)SC1=S` as the compound, how does the Potency read?
The Potency was inconclusive: 15.8 µM [inhibitor, partial curve, poor fit].

For `CC(C)CN(CC(C)C)C(=O)Nc1ccc(F)cc1F`, which Potency is on record?
The Potency was inconclusive: 35.5 µM [inhibitor, single point].

For `Cc1coc2c(C)c3oc(=O)c(CC(=O)NCCc4ccc(Cl)cc4)c(C)c3cc12`, which Potency is on record?
Its Potency is inconclusive: 35.5 µM [inhibitor, single point].

For `COC(=O)[C@H](CC(C)C)NC(=O)CCc1nnc(COc2ccccc2)o1`, which Potency is on record?
The Potency was inconclusive: 6.31 µM [inhibitor, partial curve, poor fit].

With `NC(=S)N/N=C\c1c2ccccc2cc2ccccc12` as the compound, how does the Potency read?
The Potency was inconclusive: 5.62 µM [inhibitor, single point].

For `C/C(=N\Nc1c(F)c(F)c(Br)c(F)c1F)c1ccncc1`, which “activity, negative = active” value is on record?
Its value is inactive: 2.9%.

With `CCCCOC(=O)/C=C\C(=O)NC(N)=O` as the compound, how does the Potency read?
Its Potency is inconclusive: 35.5 µM [inhibitor, single point].

For `Cc1ccc(NC(=O)c2sc3nc(N4CCOCC4)c4c(c3c2N)CC(C)(C)OC4)cc1`, which “activity, negative = active” value is on record?
The value was inactive: 1.49%.

For `Cc1ccc(S(=O)(=O)Nc2c(O)ccc3ccccc23)cc1`, which “activity, negative = active” value is on record?
The value was inactive: -0.138%.

Which “activity, negative = active” value does the source give for `O=C1c2c(O)cc(O)cc2O[C@H](c2ccc(O)c(O)c2)[C@H]1O` here?
The value was inactive: 3.66%.

For `COC(=O)CSC1=C(C#N)C(c2ccccc2)CC(=O)N1` (centres undefined), which “activity, negative = active” value is on record?
Its value is inactive: -4.23%.

Which “activity, negative = active” value does the source give for `NC(=O)COc1ccc(Nc2nnc(-c3ccc(O)cc3)c3ccccc23)cc1` here?
Its value is inactive: -1.72%.

With `Cc1cc(NC(=O)C2CCN(S(=O)(=O)c3cccc4nsnc34)CC2)ccc1Br` as the compound, how does the “activity, negative = active” value read?
Its value is inactive: -11.2%.

Which Potency does the source give for `CC1(C)C2CC=C(/C=N/NC(=S)NCCc3ccccc3)C1C2` (centres undefined) here?
Its Potency is inconclusive: 22.4 µM [inhibitor, single point].

Which Potency does the source give for `O=C(CSC(=S)N1CCCC1)c1cc(Br)cc(Br)c1O` here?
The Potency was inconclusive: 7.94 µM [inhibitor, partial curve, poor fit].

Which Potency does the source give for `COc1ccccc1/C=C1\SC(=S)N(CCC(=O)Nc2nnc(C)s2)C1=O` here?
Its Potency is inconclusive: 5.62 µM [inhibitor, single point].

With `Cc1nc2ccc(S(=O)(=O)N(C)CC(=O)NCc3ccc(N(C)C)cc3)cc2s1` as the compound, how does the Potency read?
Its Potency is inconclusive: 20 µM [inhibitor, partial curve, poor fit].

For `Cc1ccc(S(=O)(=O)N2CCCN(C(=O)c3ccc(-n4cccn4)cc3)CC2)cc1`, which Potency is on record?
The Potency was inconclusive: 5.62 µM [inhibitor, single point].

For `Cc1c(Cl)cccc1NC(=S)NCCc1ccc(F)cc1`, which Potency is on record?
Its Potency is inconclusive: 11.2 µM [inhibitor, single point].

For `CCc1ccc(CNCc2c(C(=O)O)n(Cc3ccc(C)cc3)c3cc(C)ccc23)cc1`, which Potency is on record?
Its Potency is inconclusive: 35.5 µM [inhibitor, single point].

Which Potency does the source give for `CCCCOC(=O)c1ccc(N=Nc2c(C)c(C#N)c(O)[nH]c2=O)cc1` here?
The Potency was inconclusive: 22.4 µM [inhibitor, single point].

Which Potency does the source give for `CC(C)n1nc(CC(=O)O)c2ccccc2c1=O` here?
The Potency was inconclusive: 35.5 µM [inhibitor, single point].

Which Potency does the source give for `NC(=S)N=Nc1c(O)[nH]c2c(Br)cc(Br)cc12` here?
Its Potency is inconclusive: 5.62 µM [inhibitor, single point].

With `Nc1[nH][nH]c(=O)c1N=Nc1cccc(Cl)c1` as the compound, how does the Potency read?
The Potency was inconclusive: 35.5 µM [inhibitor, single point].

Which Potency does the source give for `Cc1ccc(OCc2nnc(SCC(=O)N3CCc4ccccc43)n2C)cc1` here?
Its Potency is inconclusive: 3.55 µM [inhibitor, partial curve, poor fit].

Which Potency does the source give for `CCCN(CCC)CC(O)Cn1cc(/C=C/C(=O)c2ccc(Br)cc2)c2ccccc21` (centres undefined) here?
The Potency was inconclusive: 35.5 µM [inhibitor, single point].

Which Potency does the source give for `Nc1cc([N+](=O)[O-])cc2oc(-c3ccccc3)cc12` here?
Its Potency is inconclusive: 25.1 µM [inhibitor, partial curve, poor fit].

For `CCN(CC)c1ccc(/C=C2/C(=O)c3ccc(C(=O)O)cc3C2=O)cc1`, which Potency is on record?
The Potency was inconclusive: 22.4 µM [inhibitor, partial curve, poor fit].
